# Test results as given in article PMC6912348.
# Sequences of proteins named here, by UniProt entry; tags and fusion partners are left off.
# UniProt Q93008: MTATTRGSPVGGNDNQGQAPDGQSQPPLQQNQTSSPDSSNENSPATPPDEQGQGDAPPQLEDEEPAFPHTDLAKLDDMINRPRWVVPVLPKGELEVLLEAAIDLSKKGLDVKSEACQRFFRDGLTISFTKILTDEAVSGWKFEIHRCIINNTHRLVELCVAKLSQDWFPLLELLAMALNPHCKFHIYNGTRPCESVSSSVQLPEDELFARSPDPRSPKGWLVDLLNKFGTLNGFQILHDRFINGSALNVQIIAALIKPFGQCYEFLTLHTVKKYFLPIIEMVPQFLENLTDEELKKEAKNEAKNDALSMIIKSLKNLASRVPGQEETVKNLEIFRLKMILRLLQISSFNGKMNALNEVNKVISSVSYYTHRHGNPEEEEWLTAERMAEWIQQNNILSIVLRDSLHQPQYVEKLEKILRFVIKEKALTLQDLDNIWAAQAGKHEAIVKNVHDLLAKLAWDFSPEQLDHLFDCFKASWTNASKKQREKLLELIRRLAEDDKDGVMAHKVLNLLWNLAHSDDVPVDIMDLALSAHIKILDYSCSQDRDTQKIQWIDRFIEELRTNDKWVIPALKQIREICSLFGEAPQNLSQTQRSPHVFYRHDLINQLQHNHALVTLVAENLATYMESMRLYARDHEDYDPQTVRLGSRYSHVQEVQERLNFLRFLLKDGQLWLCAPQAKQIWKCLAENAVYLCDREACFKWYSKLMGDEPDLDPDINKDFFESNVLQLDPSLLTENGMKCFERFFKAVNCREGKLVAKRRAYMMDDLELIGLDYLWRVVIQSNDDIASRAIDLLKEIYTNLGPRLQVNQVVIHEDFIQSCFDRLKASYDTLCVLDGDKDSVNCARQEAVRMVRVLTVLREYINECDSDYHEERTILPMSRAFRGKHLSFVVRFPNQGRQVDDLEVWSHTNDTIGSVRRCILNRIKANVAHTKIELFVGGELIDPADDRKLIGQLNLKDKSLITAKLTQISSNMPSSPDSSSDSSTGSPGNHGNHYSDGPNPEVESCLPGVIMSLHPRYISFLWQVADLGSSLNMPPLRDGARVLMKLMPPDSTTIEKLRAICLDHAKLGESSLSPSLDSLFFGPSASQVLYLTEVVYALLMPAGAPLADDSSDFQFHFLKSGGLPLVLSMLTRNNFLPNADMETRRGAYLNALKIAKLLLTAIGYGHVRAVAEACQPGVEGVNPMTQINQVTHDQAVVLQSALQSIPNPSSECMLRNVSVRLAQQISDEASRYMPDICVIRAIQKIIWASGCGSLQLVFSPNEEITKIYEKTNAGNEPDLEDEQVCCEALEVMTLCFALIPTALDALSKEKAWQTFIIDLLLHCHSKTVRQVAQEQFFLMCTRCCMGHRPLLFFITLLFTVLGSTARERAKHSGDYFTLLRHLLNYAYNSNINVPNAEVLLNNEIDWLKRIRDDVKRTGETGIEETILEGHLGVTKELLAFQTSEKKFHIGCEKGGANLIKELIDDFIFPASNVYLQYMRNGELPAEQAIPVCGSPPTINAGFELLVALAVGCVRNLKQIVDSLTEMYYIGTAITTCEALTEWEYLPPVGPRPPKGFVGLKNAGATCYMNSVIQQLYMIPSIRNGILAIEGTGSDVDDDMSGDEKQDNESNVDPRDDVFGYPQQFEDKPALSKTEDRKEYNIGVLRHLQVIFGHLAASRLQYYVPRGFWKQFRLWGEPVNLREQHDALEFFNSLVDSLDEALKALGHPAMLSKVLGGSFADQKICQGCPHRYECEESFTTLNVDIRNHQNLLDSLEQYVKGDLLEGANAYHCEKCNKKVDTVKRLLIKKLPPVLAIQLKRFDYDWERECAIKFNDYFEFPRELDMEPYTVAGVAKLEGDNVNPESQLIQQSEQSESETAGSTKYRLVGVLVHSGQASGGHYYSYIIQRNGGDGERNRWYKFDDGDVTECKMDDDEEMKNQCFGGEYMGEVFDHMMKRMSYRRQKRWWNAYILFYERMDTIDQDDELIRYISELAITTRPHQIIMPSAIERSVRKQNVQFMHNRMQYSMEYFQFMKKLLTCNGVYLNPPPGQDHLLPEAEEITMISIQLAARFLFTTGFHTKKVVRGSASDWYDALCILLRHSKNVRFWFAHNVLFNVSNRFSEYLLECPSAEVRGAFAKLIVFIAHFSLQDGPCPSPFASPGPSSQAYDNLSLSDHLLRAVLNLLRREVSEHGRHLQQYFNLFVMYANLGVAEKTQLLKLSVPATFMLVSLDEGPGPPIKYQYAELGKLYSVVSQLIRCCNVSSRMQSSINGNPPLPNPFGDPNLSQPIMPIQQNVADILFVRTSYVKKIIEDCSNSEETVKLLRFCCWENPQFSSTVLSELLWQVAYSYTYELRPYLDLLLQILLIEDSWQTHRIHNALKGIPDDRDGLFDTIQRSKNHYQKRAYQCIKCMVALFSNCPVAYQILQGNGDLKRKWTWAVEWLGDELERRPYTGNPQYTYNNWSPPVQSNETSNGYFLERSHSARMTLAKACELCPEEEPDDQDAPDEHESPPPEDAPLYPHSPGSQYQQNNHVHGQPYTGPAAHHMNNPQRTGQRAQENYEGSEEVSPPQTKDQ
# UniProt Q15154: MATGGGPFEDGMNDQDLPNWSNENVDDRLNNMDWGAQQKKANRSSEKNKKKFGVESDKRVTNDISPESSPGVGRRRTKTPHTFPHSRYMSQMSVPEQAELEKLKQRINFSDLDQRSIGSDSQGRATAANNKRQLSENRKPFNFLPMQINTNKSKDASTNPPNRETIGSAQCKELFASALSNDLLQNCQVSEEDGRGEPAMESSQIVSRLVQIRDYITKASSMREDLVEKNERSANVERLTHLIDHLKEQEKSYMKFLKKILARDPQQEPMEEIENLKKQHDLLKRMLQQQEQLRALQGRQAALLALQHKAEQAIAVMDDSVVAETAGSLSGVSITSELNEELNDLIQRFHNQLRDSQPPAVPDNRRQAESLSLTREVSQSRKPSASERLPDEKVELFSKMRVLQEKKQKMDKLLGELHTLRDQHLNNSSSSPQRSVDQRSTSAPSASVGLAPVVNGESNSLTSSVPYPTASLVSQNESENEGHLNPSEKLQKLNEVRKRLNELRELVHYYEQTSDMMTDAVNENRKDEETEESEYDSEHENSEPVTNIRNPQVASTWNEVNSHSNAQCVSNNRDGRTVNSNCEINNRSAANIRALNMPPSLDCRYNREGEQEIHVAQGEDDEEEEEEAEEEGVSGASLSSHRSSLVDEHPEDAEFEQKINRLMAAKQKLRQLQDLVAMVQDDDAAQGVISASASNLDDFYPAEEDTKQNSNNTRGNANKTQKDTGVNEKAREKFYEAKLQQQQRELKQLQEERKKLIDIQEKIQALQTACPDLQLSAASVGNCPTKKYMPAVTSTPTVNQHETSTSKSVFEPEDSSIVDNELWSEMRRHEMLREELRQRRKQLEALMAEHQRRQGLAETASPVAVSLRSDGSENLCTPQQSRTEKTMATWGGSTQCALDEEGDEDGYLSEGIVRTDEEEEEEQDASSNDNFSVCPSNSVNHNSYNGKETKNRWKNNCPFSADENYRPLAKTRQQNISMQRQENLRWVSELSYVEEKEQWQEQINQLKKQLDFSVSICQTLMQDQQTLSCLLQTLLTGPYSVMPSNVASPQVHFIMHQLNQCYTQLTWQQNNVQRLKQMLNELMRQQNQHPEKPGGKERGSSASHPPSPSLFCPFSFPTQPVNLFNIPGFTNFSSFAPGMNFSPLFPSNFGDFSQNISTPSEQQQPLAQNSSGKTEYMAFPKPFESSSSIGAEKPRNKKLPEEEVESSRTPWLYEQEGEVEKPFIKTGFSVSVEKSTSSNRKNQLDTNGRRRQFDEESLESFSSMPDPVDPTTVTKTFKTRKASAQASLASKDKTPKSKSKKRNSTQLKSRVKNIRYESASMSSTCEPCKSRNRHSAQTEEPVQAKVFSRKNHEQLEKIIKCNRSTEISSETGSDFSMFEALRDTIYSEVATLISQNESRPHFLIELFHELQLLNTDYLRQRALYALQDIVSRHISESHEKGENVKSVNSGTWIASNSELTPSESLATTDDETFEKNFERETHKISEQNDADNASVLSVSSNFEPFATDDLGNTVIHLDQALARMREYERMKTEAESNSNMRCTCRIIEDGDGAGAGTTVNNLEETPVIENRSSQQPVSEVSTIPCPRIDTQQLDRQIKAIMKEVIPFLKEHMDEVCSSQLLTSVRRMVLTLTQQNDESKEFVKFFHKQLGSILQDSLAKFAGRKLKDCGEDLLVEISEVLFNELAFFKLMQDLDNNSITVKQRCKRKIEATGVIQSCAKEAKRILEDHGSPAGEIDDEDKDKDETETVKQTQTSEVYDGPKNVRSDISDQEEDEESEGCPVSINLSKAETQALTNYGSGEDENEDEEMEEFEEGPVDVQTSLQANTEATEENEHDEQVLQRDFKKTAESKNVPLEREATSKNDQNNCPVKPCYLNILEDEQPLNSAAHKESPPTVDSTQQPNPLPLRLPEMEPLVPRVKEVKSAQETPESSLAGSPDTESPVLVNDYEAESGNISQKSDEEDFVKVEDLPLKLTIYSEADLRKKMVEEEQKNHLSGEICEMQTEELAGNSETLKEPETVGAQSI
# These are yes or no findings as the source states them, for the method shown. In cells and extracts the contact can be indirect. Some entries that bind do so weakly or less than the wild type. For some of these results: Tags and fused reporters may be left off the sequences shown.
# Key:
# [1] = target: T1, sorting nexin 17 (SNX17), human full-length, with GFP-Flag-tag (human) (UniProt Q15036); test: co-IP; tagged SNX17 or its truncations precipitated from cell lysate in RIPA buffer (50 mM Tris-HCl pH7.4, 150 mM NaCl, 2 mM EDTA, 1% NP-40) on Flag beads overnight at 4 °C; blots for PCM1, USP9X and MIB1; cells in serum-containing or serum-free medium
# T1 sequence: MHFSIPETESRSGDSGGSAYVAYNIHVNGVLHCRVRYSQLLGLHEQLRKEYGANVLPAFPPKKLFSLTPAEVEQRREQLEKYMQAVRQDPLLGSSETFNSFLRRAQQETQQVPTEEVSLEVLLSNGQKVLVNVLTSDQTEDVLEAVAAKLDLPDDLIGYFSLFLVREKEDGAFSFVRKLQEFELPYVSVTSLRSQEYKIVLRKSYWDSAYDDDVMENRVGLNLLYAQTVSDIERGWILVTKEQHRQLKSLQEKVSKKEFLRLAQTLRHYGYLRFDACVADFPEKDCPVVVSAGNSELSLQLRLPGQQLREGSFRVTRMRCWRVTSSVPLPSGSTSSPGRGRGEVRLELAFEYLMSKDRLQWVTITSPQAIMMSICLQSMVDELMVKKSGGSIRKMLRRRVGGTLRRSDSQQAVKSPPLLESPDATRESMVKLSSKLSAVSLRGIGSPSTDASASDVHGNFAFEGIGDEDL
# [2] = target: T2, human SNX17-PX+FERM (human) (UniProt Q15036); test: as above
# T2 sequence: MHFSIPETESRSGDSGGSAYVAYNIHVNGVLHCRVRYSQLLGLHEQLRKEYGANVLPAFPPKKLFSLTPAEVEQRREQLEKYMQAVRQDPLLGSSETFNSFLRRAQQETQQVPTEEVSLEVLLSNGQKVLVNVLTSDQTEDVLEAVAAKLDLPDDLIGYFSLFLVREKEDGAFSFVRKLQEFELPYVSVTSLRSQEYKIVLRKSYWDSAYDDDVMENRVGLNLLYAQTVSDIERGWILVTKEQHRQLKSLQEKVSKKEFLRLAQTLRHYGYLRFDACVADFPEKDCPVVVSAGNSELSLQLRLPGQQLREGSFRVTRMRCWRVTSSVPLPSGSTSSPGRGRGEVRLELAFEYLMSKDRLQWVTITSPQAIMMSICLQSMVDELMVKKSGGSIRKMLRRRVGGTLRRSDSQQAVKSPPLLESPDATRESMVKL
# [3] = target: T3, sorting nexin 17 (SNX17), construct not told (human) (UniProt Q15036); test: co-IP; SNX17 pull-down of endogenous PCM1 at increasing amounts of ectopically expressed USP9X (Supplementary Figure S5)
# T3 sequence: T1 sequence
binding [1],binding [2],binding [3],Substance
binds,,,USP9X (ubiquitin-specific protease 9X) (from UniProt Q93008 1-2554) (enzyme)
binds,binds,binds,pericentriolar material 1 (PCM1) (from UniProt Q15154 1-2024)
